This test addresses human orexin-1 receptor (Homo sapiens (Human), UniProt O43613). Kind of test: In vitro assay: intracellular calcium measurements (FLIPR), antagonistic activity. Type of test: cell-based. The conditions noted are these: CHO cells expressing human orexin-1 receptor, orexin-A agonist, geometric mean, read-out: IC50 Ox1. On the procedure:
In Vitro Assay: Intracellular Calcium Measurements:
Chinese hamster ovary (CHO) cells expressing the human orexin-1 receptor and the human orexin-2 receptor, respectively, are grown in culture medium (Ham F-12 with L-Glutamine) containing 300 μg/ml G418, 100 U/ml penicillin, 100 μg/ml streptomycin and 10% heat inactivated fetal calf serum (FCS). The cells are seeded at 20,000 cells/well into 384-well black clear bottom sterile plates (Greiner). The seeded plates are incubated overnight at 37° C. in 5% CO2.
Human orexin-A as an agonist is prepared as 1 mM stock solution in MeOH: water (1:1), diluted in HBSS containing 0.1% bovine serum albumin (BSA), NaHCO3: 0.375 g/l and 20 mM HEPES for use in the assay at a final concentration of 3 nM. […]
Within the Fluorescent Imaging Plate Reader (FLIPR Tetra, Molecular Devices), antagonists are added to the plate in a volume of 10 μl/well, incubated for 120 min and finally 10 μl/well of agonist is added. Fluorescence is measured for each well at 1 second intervals, and the height of each fluorescence peak is compared to the height of the fluorescence peak induced by an approximate EC70 (for example 5 nM) of orexin-A with vehicle in place of antagonist. […] The calculated IC50 values may fluctuate depending on the daily cellular assay performance. […]

Sequences of proteins named here, by UniProt entry; tags and fusion partners are left off.
UniProt O43613, whole entry: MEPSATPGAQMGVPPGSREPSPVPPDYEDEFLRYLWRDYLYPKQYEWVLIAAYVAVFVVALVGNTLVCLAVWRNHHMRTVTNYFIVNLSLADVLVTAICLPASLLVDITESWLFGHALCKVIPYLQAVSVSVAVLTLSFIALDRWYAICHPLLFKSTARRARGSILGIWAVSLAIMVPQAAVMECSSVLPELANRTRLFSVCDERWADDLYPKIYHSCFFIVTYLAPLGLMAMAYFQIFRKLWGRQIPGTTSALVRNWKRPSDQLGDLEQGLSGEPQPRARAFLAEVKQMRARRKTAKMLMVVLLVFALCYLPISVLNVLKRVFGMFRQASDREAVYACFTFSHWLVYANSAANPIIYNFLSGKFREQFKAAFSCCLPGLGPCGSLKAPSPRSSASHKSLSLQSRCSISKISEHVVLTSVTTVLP

On to `Cc1c(Br)cc2[nH]c([C@]3(C)CCCN3C(=O)c3c(F)cccc3-n3nccn3)nc2c1C` [Ex. 5.268], for which the IC50 – broadly, the concentration at which inhibition is half-maximal – is 6 nM.

These data come from patent US9732075B2, “Benzimidazole-proline derivatives” (IDORSIA PHARMACEUTICALS LTD, priority 2012, dated 2017).
